Taken from: PubChem BioAssay AID1259308 (NCATS, 2017)

Assay: 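Genes whose loss raises luciferase production in HEK293 cells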 (primary screen)
Cells: human HEK293 embryonic kidney cells stably expressing firefly luciferase (HEK-CMV-Luc2-Hygro)
Reagents: single siRNA against human genes, 0.8 pmol siRNA per well
Time to read-out: 72 h
Read-out: 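Reporter luminescence and viable-cell signal on separate replicate plates, given as percent of non-targeting control and median/MAD z-scores, plus per-cell luciferase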
Direction: total luciferase, z-score: higher = more reporter protein produced
Rule for the call: 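An siRNA counts as active if its total luciferase robust z-score exceeds 3; genes with two or more such siRNAs out of three were retested with fresh siRNAs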
Meaning of the calls: active = raised luciferase; inactive = no rise
In all, the deposit lists about 59,000 reagents; shown is an unselected part. About 1,510 of them (2.6%) count as active. 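Calls use total luciferase alone and ignore viability, so some active siRNAs may act by altering cell number.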 A number with no mark means an inactive call. The numbers tell different reagents against one gene apart. Not all columns of the deposit are shown. No sequences are given here.

With knock-down of PDE1A #1, the record shows total luciferase, z-score -0.604. For PDE1A #2, the values are total luciferase, z-score 1.12. PDE1A #3 gave total luciferase, z-score -1.08. With knock-down of DPH1 #1, the record shows total luciferase, z-score 1.54. With knock-down of DPH1 #2 the results were total luciferase, z-score -0.227. For DPH1 #3, the entry reads total luciferase, z-score 3.35 (active).

MAP2K7 #1 scored total luciferase, z-score 0.389. MAP2K7 #2 gave total luciferase, z-score -0.316. Against MAP2K7 #3 the deposit lists total luciferase, z-score -1.78.

Ordered by “total luciferase, z-score” (lowest first): 2 of the entries above.
DPH1 #2 — total luciferase, z-score = -0.227
DPH1 #1 — total luciferase, z-score = 1.54

The listing continues:
Depletion of TCF20 #1 resulted in: total luciferase, z-score -0.146. Against TCF20 #2, the values are total luciferase, z-score -0.355. TCF20 #3 scored total luciferase, z-score 0.613. With knock-down of CD200R1L #1, the screen gave total luciferase, z-score 0.565. Knock-down of CD200R1L #2 resulted in: total luciferase, z-score -0.593. Against CD200R1L #3, the values are total luciferase, z-score -0.895.

GALNT18 #1 showed total luciferase, z-score -0.8. GALNT18 #2 gave total luciferase, z-score -0.625. Silencing of GALNT18 #3 came out at: total luciferase, z-score 0.0707. After knock-down of TMIE #1, the screen gave total luciferase, z-score -1.32. Silencing of TMIE #2 came out at: total luciferase, z-score -1.19. After knock-down of TMIE #3, the record shows total luciferase, z-score -0.234.
